One substance from doi:10.1101/2020.07.23.217679 can be followed below.

The target of this test is T1, PAR-6 PDZ domain (C. elegans) (UniProt Q9NAN2).
T1 sequence: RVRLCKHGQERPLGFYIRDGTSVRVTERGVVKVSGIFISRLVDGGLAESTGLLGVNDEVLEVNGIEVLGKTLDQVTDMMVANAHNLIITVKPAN
The test can be described thus: two-hybrid.

No constants are given. Whether binding was seen depends on the method and setting. A result given as binding can be weak or reduced; the word gives no strength.

Take “NOCA-1d, full-length (from UniProt G5EEK3-4)”: the binding result is listed as “binds”.
